# According to US12054469B2, “Benzothiophene-based selective estrogen receptor downregulator compounds” (The Board of Trustees of the University of Illinois, priority 2015, dated 2024):
# Protein sequences, listed by entry. Tags and fused reporters are not part of them.
# UniProt P03372, whole entry: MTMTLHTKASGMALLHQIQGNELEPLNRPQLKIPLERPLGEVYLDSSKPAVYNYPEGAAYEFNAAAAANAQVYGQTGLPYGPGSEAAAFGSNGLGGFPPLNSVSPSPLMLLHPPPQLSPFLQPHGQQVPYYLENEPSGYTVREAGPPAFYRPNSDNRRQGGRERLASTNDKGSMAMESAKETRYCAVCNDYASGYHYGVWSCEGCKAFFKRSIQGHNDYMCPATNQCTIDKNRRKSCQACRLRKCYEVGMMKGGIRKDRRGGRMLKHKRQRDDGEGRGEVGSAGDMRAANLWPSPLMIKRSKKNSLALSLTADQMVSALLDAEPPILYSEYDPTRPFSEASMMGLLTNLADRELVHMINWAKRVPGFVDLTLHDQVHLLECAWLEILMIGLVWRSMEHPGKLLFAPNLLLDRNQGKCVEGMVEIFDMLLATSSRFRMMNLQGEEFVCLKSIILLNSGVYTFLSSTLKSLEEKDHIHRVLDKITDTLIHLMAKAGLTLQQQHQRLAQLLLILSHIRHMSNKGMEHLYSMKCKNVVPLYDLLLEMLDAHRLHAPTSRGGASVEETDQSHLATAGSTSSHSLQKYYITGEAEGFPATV
# For at least one compound, name, drawing or mass did not settle the structure.
# Target: estrogen receptor (Homo sapiens (Human), UniProt P03372)
# Experiment: Western blot analysis of estrogen receptor downregulation
# Assay type: cell-based
# Conditions: 10 nM
# Method: Whole-cell extracts of cultured cells were prepared in lysis buffer (200 mmol/L Tris, 1% Triton X-100, 5 mmol/L EDTA) with protease and phosphatase inhibitor cocktails (1:50, both from Sigma-Aldrich) after scraping from the culture plates. Protein concentration was measured using the Bradford method (Bio-Rad). Proteins were separated under denaturing conditions and blotted onto nitrocellulose membrane (Bio-Rad) using a wet transfer system (Bio-Rad). Images of blots were acquired on a Bio-Rad ChemiDoc System following incubation with SuperSignal West Dura luminol solution (Thermo Fisher Scientific).
structure (smiles),measurement,value
"O=C(O)/C=C/c1ccc(Oc2c(C(=O)c3ccccc3)sc3cc(O)ccc23)cc1 [Compound 4, (E)-3-(4-((2-Benzoyl-6-hydroxybenzo[b]thiophen-3-yl)oxy)phenyl) acrylic acid]",Estrogen receptor downregulation (western blot),downregulate the estrogen receptor
